Counter-ions that a name gives are not always drawn.

The subject of this series is cough pulses. Briefly: Citric acid aerosol cough test in guinea pigs, subcutaneous, 30 min (method of Friebel and Reichle), Comparative test 1. Conditions: s.c., percent deviation vs log dose, 3-100 mg/kg. Type of series: in vivo. The protocol:
In order to compare the anti-cough effectiveness of codeine phosphate with the effectiveness of the different isomers of glaucine hydrobromide, the testing method of Friebel and Reichle was used. 60 guinea pigs with weights between 200 and 300 g were divided up into ten groups of different sizes. Before administering the active substance, each animal was subjected, on the same day as the day of test with the active substance, for a period of 8 minutes to an aerosol of 20% citric acid, the animal being confined in a chamber at constant air pressure. During this control test the number of cough pulses was counted with the help of a pressure transmitter. From these measurements an average control value for each group was calculated. After this preliminary control test, there was given subcutaneously to each animal of each group a suspension of the active substance in 1% sodium carboxymethyl cellulose. After 30 minutes each animal was again exposed in the test chamber for 8 minutes to the aerosol of 20% citric acid and the number of cough pressure pulses recorded. The different active substances were administered in increasing doses ranging from 3 mg/kg to 100 mg/kg of body weight. Altogether eight different doses were given. The results were expressed as percent deviation from the average control value for the group on the same day, the deviation being entered in a diagram against the logarithm of the dose administered. From the resulting effectiveness curve, based on the logarithm of the dose, the coefficient of correlation and the ED50 were calculated for each active substance, by the regression analysis method of Downie and Heath (1965). The values obtained for codeine phosphate, for d-glaucine hydrobromide, for d,l-glaucine hydrobromide and for l-glaucine hydrobromide thirty minutes after administering the active substance are summarized in Table I.
In the case of `COc1cc2c(cc1OC)-c1c(OC)c(OC)cc3c1C(C2)N(C)CC3` (racemic) [d,l-glaucine hydrobromide], the “Rising slope of curve” value was -57.8.
Consider `COc1cc2c(cc1OC)-c1c(OC)c(OC)cc3c1[C@H](C2)N(C)CC3` [d-glaucine hydrobromide, reference compound], for which the “Rising slope of curve” value was -60.8.
Take `COc1cc2c(cc1OC)-c1c(OC)c(OC)cc3c1[C@@H](C2)N(C)CC3` [l-glaucine hydrobromide]: the “Rising slope of curve” value was -70.96.
